In patent US20170002057A1, “COMPOSITIONS CONTAINING FUSION PROTEIN OF ALBUMIN AND ANALOGS THEREOF, METHODS FOR MAKING AND USING THE SAME” (NAL PHARMACEUTICAL GROUP LIMITED, priority 2015, published 2017):
Some entries share one result that the patent states for a list of compounds.

Protein sequences, listed by entry. Tags and fused reporters are not part of them. Lines headed by an entry give the natural chain unless they say otherwise; changes in a name come on top.
UniProt P30874: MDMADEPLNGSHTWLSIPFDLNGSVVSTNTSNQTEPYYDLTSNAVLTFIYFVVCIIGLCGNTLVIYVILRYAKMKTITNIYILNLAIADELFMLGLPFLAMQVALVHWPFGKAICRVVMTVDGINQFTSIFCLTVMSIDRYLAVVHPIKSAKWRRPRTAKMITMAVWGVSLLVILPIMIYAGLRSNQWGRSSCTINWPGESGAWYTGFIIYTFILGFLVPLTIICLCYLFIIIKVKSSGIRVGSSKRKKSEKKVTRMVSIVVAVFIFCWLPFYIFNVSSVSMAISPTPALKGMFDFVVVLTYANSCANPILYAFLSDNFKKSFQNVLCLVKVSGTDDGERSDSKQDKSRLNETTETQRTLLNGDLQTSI

Target: human somatostatin sst2 receptors (Homo sapiens, UniProt P30874)
Assay: [125I]Somatostatin competitive binding on SSTR2 membranes
Design: expressed in transfected cells; host or cells: CHO-K1 (stably transfected; membranes prepared)
Details: 0.03 nM [125I]Somatostatin, 240 minutes at 25° C.

Substance: SEQ ID NO: 9: His6-GGS-HSA-GGGGS-SST14
- Inhibition % at 0.1 μM: 57-59%
